Assay results as given in patent US20260008856A1, “METHODS OF TREATING DISEASE USING ANTI-IL1RAP ANTIBODIES AND ANTIBODY DRUG CONJUGATES” (Bluefin Biomedicine, Inc., priority 2022, published 2026).
For at least one compound, name, drawing or mass did not settle the structure.

Tested on: TARC production in HDM stimulated human PBMCs
Assay: TARC production in HDM stimulated human PBMCs
Type: cell-based
Details: HDM 10 ug/ml; JAKi and dexamethasone 0.1 nM, 10 nM, 1 uM; BFB759 1 ug/ml in combination
Source text: Materials included Human peripheral blood mononuclear cells (PBMCs) that were isolated from healthy donor blood and either frozen in liquid nitrogen and thawed prior to analysis or used fresh. Materials also included HDM (house dust mite extract) that was from Greer lab and purchased through Fisher Scientific (NC9756554, Lot #390844). Additionally, Human IL-4 (204-IL-010) was purchased from R&D Systems; Human IL-13 (200-13) was purchased from Peprotech; JAK inhibitors (JAKi) Abrocitinib (HY-107429) and Upadacitinib (HY-19569) were purchased from MedChemExpress; Dexamethasone (D4902) was purchased from Sigma-Aldrich; Dupilumab (HY-P9926) was purchased from MedChemExpress; Tralokinumab was produced by Bluefin Biomedicine according to the published protein sequence; and TARC ELISA kits (DuoSet Cat #DY364, Quantikine Cat #SDN00) were purchased from R&D Systems.
Blood was drawn in heparin tubes from healthy volunteers. PBMCs were isolated by centrifugation of the blood over Ficoll-Paque Plus density gradients using LeucoSep tubes.
0.2 million PBMCs in 100 ul medium (RPMI1640, 10% heat-inactivated FBS) were added to each well of 96 well cell culture plate. BFB759 at multiple concentrations in 50 ul medium was added to the wells. The cells were incubated in the incubator for 45 min. Then, 50 ul HDM solution (final concentration 10 ug/ml) was added to the wells. […]

| SMILES | inhibition of TARC in HDM stimulated cells |
| --- | --- |
| CC[C@@H]1CN(C(=O)NCC(F)(F)F)C[C@@H]1c1cnc2cnc3[nH]ccc3n12 [Upadacitinib] | dose dependent inhibition |
| C[C@@H]1C[C@H]2[C@@H]3CCC4=CC(=O)C=C[C@]4(C)[C@@]3(F)[C@@H](O)C[C@]2(C)[C@@]1(O)C(=O)CO [dexamethasone, Dexamethasone] | dose dependent inhibition |
